In patent US20030013638A1, “P27 prevents cellular migration” (priority 2001, published 2003):
For at least one compound, name, drawing or mass did not settle the structure. Some entries repeat one wording, which the source may state once for all of them.

Tests used:
p27 (−/−) SMC [1] = test: SMC migration assay, modified Boyden chamber, bFGF-induced; format: cell-based, mouse
Experimental: (§1) Cell Culture: The murine aortic SMCs were obtained from the explant migration experiments described below, and were subcultured in DMEM containing 20% fetal bovine serum (FBS) at 37° C. in a humidified 95% air-5% CO2 atmosphere (Kobayashi et al., 1993). The growth medium was changed every other day until 80% confluence was reached. The cells used for experiments were from passages #3-6. Verification of SMC phenotype was determined by positive fluorescent staining for α-actin and negative staining for Factor VIII antigen. Cell viability was 95% or greater as determined by trypan blue exclusion at the conclusion of each experiment.
SMC migration assay: Migration was measured using a 48 well modified Boyden chamber housing a polycarbonate filter with 8 μm pores as described previously (Bornfeldt et al., 1994; Poon et al., 1996). […] Rapamycin, FK506 or C3 exoenzyme was directly added to the growth medium for either 48 hours (rapamycin and FK506) or 16 hours (C3 exoenzyme) before the cells were trypsinized, and counted with a hemacytometer. […] The number of SMC on the lower surface of the filter was determined by counting four high power (X200) fields of constant area per well. Values are expressed as the percentage of cells migrating in response to bFGF after subtraction of the negative control (DMEM+BSA). […]

wild type murine SMC = test: as above; format: cell-based, mouse
Experimental: as §1
SMC migration assay: Migration was measured using a 48 well modified Boyden chamber housing a polycarbonate filter with 8 μm pores as described previously (Bornfeldt et al., 1994; Poon et al., 1996). Each membrane was coated with 0.1 mg/ml of collagen in 0.2 M acetic acid for 24 hours before each assay. For each assay, 50 ng/ml of bFGF in DMEM was loaded in quadruplicate wells in the bottom chamber. BSA (0.2% in DMEM without bFGF) was used as a negative control. […] The number of SMC on the lower surface of the filter was determined by counting four high power (X200) fields of constant area per well. Values are expressed as the percentage of cells migrating in response to bFGF after subtraction of the negative control (DMEM+BSA). […]

Swiss 3T3 cells = conditions: acute 6 hour treatment (rapamycin 1-100 nM); cited from earlier work
SMC = conditions: acute 6 hour treatment (rapamycin 1-100 nM); cited from earlier work
[2] = tested on: chronic graft vascular disease; conditions: rodent heart allograft model; cited from earlier work
p27 (−/−) SMC [3] = test: SMC adhesion assay on fibronectin or laminin coated plates; format: cell-based, mouse; conditions: 100 nM for 48 hours, fibronectin and laminin coated plates, 3 hours
p27^kip1 = test: Immunoblot of p27^kip1 in SMC; format: cell-based, mouse; conditions: wild type murine SMC, 100 nM for 48 hours
[4] = tested on: aortic SMC of p27 (−/−) knockout mice; test: Aortic SMC explant migration after in vivo treatment; set-up: species or system mouse; conditions: 4 mg/kg/day for 5 days IP
Experimental: (§2) Aortic SMC explant migration: Wild type C57BL/6 mice were purchased from Jackson Laboratory (Bar Harbor, Me.). The p27 (+/−) and p27 (−/−) knockout mice were kindly provided by Dr. Andrew Koff of Memorial Sloan-Kettering Cancer Institute (Kiyokawa et al., 1996). […] The control group was treated with vehicle alone (0.2% sodium CMC, polysorbate 0.25%; Sigma, St. Louis, Mo.). At the conclusion of the treatment protocol, the mice were euthanized with 100 mg/kg of pentobarbital, the aortas excised and the adventitia and surrounding connective tissue were removed. The aortas were then opened by a longitudinal cut and the intima, as well as a thin portion of the subjacent media, were removed. The media were divided into 2 mm×2 mm pieces and placed in 6 well tissue culture plates (35 mm, 22.6 mm diameter, Costar, Cambridge, Mass.) containing DMEM with 20% FBS. The culture media was changed every other day. The migration of SMC out of the explant was observed under the microscope daily following explant. The total number of cells explanted was determined for each animal's explants on a daily basis. The results in FIG. 5 are presented as the mean percentage (±SD) of inhibition of migration (by rapamycin or taxol) as compared to control (untreated) for at least 4 animals from each group. The SMC phenotype was confirmed as previously described (Spector et al., 1997).

[5] = tested on: aortic SMC of wild type C57BL/6 mice; test: as above; set-up: species or system mouse; conditions: 2 mg/kg/day for 2 days IP; genotype not stated
Experimental: as §2

rat SMC = conditions: cited from earlier work
wild type SMC = test: SMC adhesion assay on fibronectin or laminin coated plates; format: cell-based, mouse; conditions: 100 nM for 48 hours, fibronectin and laminin coated plates, 3 hours
human SMC = conditions: cited from earlier work
[6] = tested on: neointimal proliferation / intimal thickening; conditions: cited from earlier work

Structure (SMILES): C=CC[C@@H]1/C=C(\C)C[C@H](C)C[C@H](OC)[C@H]2O[C@@](O)(C(=O)C(=O)N3CCCC[C@H]3C(=O)O[C@H](/C(C)=C/[C@@H]3CC[C@@H](O)[C@H](OC)C3)[C@H](C)[C@@H](O)CC1=O)[C@H](C)C[C@@H]2OC [FK506]
- competition with rapamycin-induced inhibition of migration (FIG. 1D) (p27 (−/−) SMC [1]; rapamycin 100 nM, 20 fold molar excess of FK506): competitively inhibited
- competition with rapamycin-induced inhibition of migration (FIG. 1C) (wild type murine SMC; wild type SMC, rapamycin 10 nM, 100-fold molar excess of FK506): competitively inhibited

Structure (SMILES): O=c1cc(N2CCOCC2)oc2c(-c3ccccc3)cccc12 [LY294002]
- PDGF-induced chemotaxis (Swiss 3T3 cells): failed to inhibit
- PDGF-induced chemotaxis (SMC): failed to inhibit

Structure (SMILES): CO[C@H]1C[C@@H]2CC[C@@H](C)[C@@](O)(O2)C(=O)C(=O)N2CCCC[C@H]2C(=O)O[C@H]([C@H](C)C[C@@H]2CC[C@@H](O)[C@H](OC)C2)CC(=O)[C@H](C)/C=C(\C)[C@@H](O)[C@@H](OC)C(=O)[C@H](C)C[C@H](C)/C=C/C=C/C=C/1C [rapamycin]
- inhibition of SMC migration (FIG. 1B) (p27 (−/−) SMC [1]; 100 and 1000 nM, p<0.05 vs control): significantly inhibit
- chronic graft vascular disease [2]: reversed
- inhibition of SMC migration (FIG. 1A) (wild type murine SMC; wild type SMC, 1, 10 and 100 nM, p<0.05 vs control): significantly inhibited
- PDGF-induced chemotaxis (Swiss 3T3 cells): failed to inhibit
- cell adhesion (p27 (−/−) SMC [3]): did not affect cell adhesion
- p27^kip1 protein levels (p27^kip1): significant increase
- inhibition of explant migration as compared to untreated animals [4]: no rapamycin-mediated inhibition of migration
- inhibition of explant migration [5]: no rapamycin-mediated inhibition of migration
- PDGF-induced SMC migration, acute treatment (rat SMC; 6 hours): no effect
- PDGF-induced SMC migration (rat SMC; pretreatment 2 nM for 48 hours): inhibited
- PDGF-induced chemotaxis (SMC): failed to inhibit
- cell adhesion (wild type SMC): did not affect cell adhesion
- PDGF-induced SMC migration, acute treatment (human SMC; 6 hours): no effect
- PDGF-induced SMC migration (human SMC; pretreatment 2 nM for 48 hours): inhibited
- reduction of intimal thickening ([6]; after coronary angioplasty in the porcine model): 50%
- neointimal proliferation ([6]; porcine angioplasty model): significantly inhibited

Structure (SMILES): COC[C@H]1OC(=O)c2coc3c2[C@@]1(C)C1=C(C3=O)[C@@H]2CCC(=O)[C@@]2(C)C[C@H]1OC(C)=O [wortmannin]
- PDGF-induced chemotaxis (Swiss 3T3 cells): failed to inhibit
- PDGF-induced chemotaxis (SMC): failed to inhibit
